No constants are given. Whether binding was seen depends on the method and setting. Binding seen in cells or lysates may run through a third protein. Some entries that bind do so weakly or less than the wild type.
Target: apoptosis signal-regulating kinase 1 (mouse (endogenous in mouse brain)) (UniProt O35099)
Test: co-IP; ASK1 immunoprecipitated with rabbit polyclonal ASK1 antibody from 200-400 ug brain lysate protein (pooled from three mice) of klkl, EFmKL48 and wild-type mice; IP buffer 20 mM Tris pH 7.5, 150 mM NaCl, 2 mM EDTA, 1 mM EGTA, 4 °C; protein A agarose; co-precipitated Trx shown by Western blot

Protein sequences, listed by entry. Tags and fused reporters are not part of them.
UniProt O35099: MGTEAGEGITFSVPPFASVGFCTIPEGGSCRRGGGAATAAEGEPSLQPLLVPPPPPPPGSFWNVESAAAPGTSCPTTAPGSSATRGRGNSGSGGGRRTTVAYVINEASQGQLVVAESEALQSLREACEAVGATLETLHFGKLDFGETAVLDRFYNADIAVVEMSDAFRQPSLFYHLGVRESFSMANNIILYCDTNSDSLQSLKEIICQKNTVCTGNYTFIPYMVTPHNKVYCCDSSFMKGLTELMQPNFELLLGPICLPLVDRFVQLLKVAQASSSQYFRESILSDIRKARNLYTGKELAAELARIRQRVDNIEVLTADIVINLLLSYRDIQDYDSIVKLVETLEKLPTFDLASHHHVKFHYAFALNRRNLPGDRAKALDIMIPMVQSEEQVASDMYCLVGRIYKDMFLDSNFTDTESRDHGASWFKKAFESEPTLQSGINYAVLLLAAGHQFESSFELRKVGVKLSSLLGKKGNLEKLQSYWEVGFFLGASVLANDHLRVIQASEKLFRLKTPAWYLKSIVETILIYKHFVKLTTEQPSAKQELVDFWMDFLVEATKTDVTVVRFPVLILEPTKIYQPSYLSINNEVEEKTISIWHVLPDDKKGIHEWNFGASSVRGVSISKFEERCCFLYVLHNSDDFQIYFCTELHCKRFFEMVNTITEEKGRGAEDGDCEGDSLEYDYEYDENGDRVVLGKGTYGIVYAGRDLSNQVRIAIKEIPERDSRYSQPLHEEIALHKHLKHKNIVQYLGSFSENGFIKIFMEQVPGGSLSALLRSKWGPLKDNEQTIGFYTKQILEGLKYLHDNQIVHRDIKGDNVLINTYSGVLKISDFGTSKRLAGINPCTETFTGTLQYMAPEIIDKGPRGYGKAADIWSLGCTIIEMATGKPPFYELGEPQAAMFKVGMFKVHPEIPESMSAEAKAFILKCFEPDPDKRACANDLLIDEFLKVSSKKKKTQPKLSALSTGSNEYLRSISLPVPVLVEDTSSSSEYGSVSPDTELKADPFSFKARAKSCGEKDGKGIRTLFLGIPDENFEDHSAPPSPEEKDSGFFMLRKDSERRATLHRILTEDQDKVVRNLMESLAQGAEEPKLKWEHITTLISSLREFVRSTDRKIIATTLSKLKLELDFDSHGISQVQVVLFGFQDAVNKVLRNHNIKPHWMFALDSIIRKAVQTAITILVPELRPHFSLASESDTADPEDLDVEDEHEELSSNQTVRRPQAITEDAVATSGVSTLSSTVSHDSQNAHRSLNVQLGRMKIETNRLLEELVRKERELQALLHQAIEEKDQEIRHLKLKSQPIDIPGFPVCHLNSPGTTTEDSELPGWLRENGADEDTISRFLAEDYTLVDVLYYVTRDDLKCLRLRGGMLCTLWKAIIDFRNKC

- binding: binds
B1: thioredoxin (protein, UniProt P10639 1-105)
chain: MVKLIESKEAFQEALAAAGDKLVVVDFSATWCGPCKMIKPFFHSLCDKYSNVVFLEVDVDDCQDVAADCEVKCMPTFQFYKKGQKVGEFSGANKEKLEASITEYA
